Consider one compound from patent publication US5973204A (priority 1997, dated 1999).

A short description of the data set: in vitro. As to conditions: breast carcinoma, other tumor cells.

In turn, `COc1cc2c(c(OC)c1OC)-c1ccc(SC)c(=O)cc1[C@@H](NC(C)=O)CC2` [thiocolchicine] gave an MCC of 0.6 nM.
